Library screen at single concentrations

From ChEMBL document CHEMBL3988442, “University of Dundee, Small-Polar-MMV Screening Library” (2021).

Results are given as percent effect.
The controls that fix the scale are not given in the record; negative values are as filed.
The compounds are a random part of those screened.

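Whole-parasite assay of Trypanosoma brucei over 72 hours; the read-out is not stated. Tested at 30 µM. The record gives no direction; compounds that gave an IC50 in retests scored well above the rest, so higher reads as stronger inhibition. Values scatter widely below zero; nearly all retest evidence comes from the higher of the two concentrations used. Size under these conditions: about 64,000 compounds, about 940 of them at 50% or above in at least one test.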

{"smiles": "Cc1cc2n(n1)CC(CNCc1ccc(-n3cccn3)nc1)CN2", "stereo": "stereo not given", "effect": -7.458}
{"smiles": "[H][C@@]12CCN[C@]1([H])CN(S(=O)(=O)c1ccc(Cl)cc1)C2", "effect": -2.914}
{"smiles": "CC(CNC(=O)c1cccnc1O)Cn1cccn1", "stereo": "stereo not given", "effect": -23.73}
{"smiles": "CC(=O)N1CCCC2(CN(Cc3ccccc3C(F)(F)F)CCO2)C1", "stereo": "stereo not given", "effect": 14.68}
{"smiles": "c1ccc(-c2nnc([C@H]3CCN(C4CCC4)C3)o2)cc1", "effect": -5.44}
{"smiles": "CS(=O)(=O)NCCC(=O)N1CCCC1c1noc(C2CC2)n1", "stereo": "stereo not given", "effect": -18.3}
{"smiles": "CC(C)(C)c1cc(NC(=O)C2CCCO2)n(-c2ccccn2)n1", "stereo": "stereo not given", "effect": -13.85}
{"smiles": "O=C(O)c1cnc(N2CCC(O)CC2)nc1COc1ccc(F)cc1", "effect": -8.785}
{"smiles": "COC1CCN(S(=O)(=O)N2C[C@H](c3ccccc3)[C@@H](N)C2)CC1", "effect": -7.039}
{"smiles": "CC(C)NC(=O)N[C@H]1C[C@@H](c2nc(-c3ccncc3)no2)N(C)C1", "effect": -7.189}
{"smiles": "O=C(CCc1ccco1)Nc1ccc(Br)cn1", "effect": -13.76}
{"smiles": "COc1ccccc1OCc1nc(C(C)C)no1", "effect": -19.61}
{"smiles": "C[C@@H]1CN(C2(C(=O)N(C)C)Cc3ccccc3C2)C[C@H](C)O1", "effect": -44.77}
{"smiles": "O=C(NCc1cc[nH]n1)N1CCCCC(N2CCCC2)C1", "stereo": "stereo not given", "effect": 21.61}
{"smiles": "Cc1ccc(CNc2cc3c(cc2Cl)NC(=O)CO3)cc1C", "effect": -31.07}
{"smiles": "C/C(=C\\c1ccco1)CN(C)C(C)Cc1ccccn1", "stereo": "stereo not given", "effect": -43.4}
{"smiles": "CC(C)Oc1ccc(CNC(=O)CC(F)(F)F)cc1F", "effect": 3.967}
{"smiles": "COc1ccc(Cl)cc1NCC(=O)NCCc1ccccn1", "effect": -26.06}
{"smiles": "O=C(NC1CCCc2nc(N3CCOCC3)ncc21)C1CCCC1", "stereo": "stereo not given", "effect": 6.162}
{"smiles": "CCc1nnc2n1CCN(C(=O)c1cc3cc(F)ccc3[nH]1)C2", "effect": 11.5}
{"smiles": "CCc1noc(CN(CC)C(=O)c2ccc3ncsc3c2)n1", "effect": -18.51}
{"smiles": "CO[C@H]1C[C@@H](O)C12CCN(C(=O)NCc1ccco1)CC2", "effect": -15.6}
{"smiles": "c1ccc2oc(N3CCn4c(nnc4C4CC4)C3)nc2c1", "effect": -33.56}
{"smiles": "c1ncn(CCNC2CCCN(Cc3noc(C4CC4)n3)C2)n1", "stereo": "stereo not given", "effect": -19.45}
{"smiles": "CC[C@H]1COCCN1C(=O)c1cnc(C(C)C)nc1C", "effect": -54.77}
{"smiles": "COCCCN(C)S(=O)(=O)c1ccc(Cl)cc1C#N", "effect": -57.15}
{"smiles": "CN(C)C1(CNc2nccc(-c3cnn(C)c3)n2)CCSC1", "stereo": "stereo not given", "effect": -71.62}
{"smiles": "O=C(Nc1ccccc1OCCc1ccccn1)N1CCOCC(O)C1", "stereo": "stereo not given", "effect": -38.76}
{"smiles": "CC(=O)NC1CCN(c2nc(N(C)C)nc3c2CCN(C(C)=O)C3)CC1", "effect": -6.372}
{"smiles": "CNS(=O)(=O)Cc1ccc(CNC(=O)Nc2cn[nH]c2)cc1", "effect": -53.53}
{"smiles": "O=C(O)C(F)(F)F.O=C(O)C(F)(F)F.[H][C@]12CCN(c3ccccc3)C[C@@]1([H])OCCN(Cc1ccncc1)C2", "effect": 99.05}
{"smiles": "CC1(c2[nH]ncc2C(N)=O)CCN(c2ncccn2)CC1", "effect": -16.93}
{"smiles": "O=C(N[C@H]1CC[C@H](O)CC1)c1ccc2nc(-c3ccccc3)cn2c1", "effect": -8.461}
{"smiles": "CCC(=O)N1CCC2(CC1)CC(CC(=O)N(C)C)c1ccc(F)cc12", "stereo": "stereo not given", "effect": -4.762}
{"smiles": "Cl.Cn1cc(CNC2CCC(O)CC2)c(-c2cc3ccccc3o2)n1", "stereo": "stereo not given", "effect": -23.98}
{"smiles": "Cc1occc1CNC(=O)C1(C)CCCN(C(=O)c2ccccc2)C1", "stereo": "stereo not given", "effect": -3.491}
{"smiles": "Cc1noc(NC(=O)CCNC(=O)c2ccc(Br)cc2)n1", "effect": -27.06}
{"smiles": "c1ccc(Cc2noc(CN3CCOC(Cn4cccn4)C3)n2)cc1", "stereo": "stereo not given", "effect": -7.105}
{"smiles": "Cc1nc(CNC(=O)NCC(O)c2ccc(F)c(F)c2)cs1", "stereo": "stereo not given", "effect": 24.49}
{"smiles": "[H][C@@]12CN(c3cc(OC)ncn3)C[C@@H](C(=O)NC3CC3)[C@]1([H])CCO2", "effect": 5.842}
{"smiles": "COCCN1CCc2c(cnc(-c3ccoc3)c2C(=O)O)C1.O=C(O)C(F)(F)F", "effect": 10.78}
{"smiles": "[H][C@@]12CN(Cc3cccc(C)n3)C[C@]1([H])OCCN2S(=O)(=O)N(C)C", "effect": -33.62}
{"smiles": "CCc1c(C)[nH]c(C2(N)CCCC2)nc1=O.Cl", "effect": -2.055}
{"smiles": "CCn1cc(-c2nn3c(C(F)(F)F)nnc3s2)c(C)n1", "effect": -13.87}
{"smiles": "COc1ccc2c(c1)C1(CCN(Cc3ccccn3)CC1)N(C)CC2.O=C(O)C(F)(F)F.O=C(O)C(F)(F)F", "effect": -67.72}
{"smiles": "CCOc1ccccc1OC1CCN(C(=O)c2csnn2)CC1", "effect": -11.54}
{"smiles": "CC(C)N1CC(C(=O)NCc2cccnc2-n2cccn2)CC1=O", "stereo": "stereo not given", "effect": 7.892}
{"smiles": "C1CN(c2nc(C3CC3)no2)CCN(C2CCOCC2)C1", "effect": -51.71}
{"smiles": "Cn1cc(-c2ccnc(NCC3CCCCO3)n2)cn1", "stereo": "stereo not given", "effect": -169.8}
{"smiles": "CCn1c(C)nnc1SCCNC(=O)c1cnc(N(C)C)nc1C", "effect": 4.214}
{"smiles": "Cc1nnc(NC(=O)N2CCC(N3CCCCC3)CC2)s1", "effect": -32.31}
{"smiles": "Cc1ccc(-c2nc(CCNC(=O)NCC(C)(C)C(N)=O)co2)cc1", "effect": 17.51}
{"smiles": "CCS(=O)(=O)CCN(C)C(=O)NC(C)c1ccc(C)s1", "stereo": "stereo not given", "effect": -22.48}
{"smiles": "COc1ccc(C(=O)NCCN2CCC(c3cccs3)CC2)cc1OC", "effect": 1.446}
{"smiles": "Cc1nnc(C(C)N2CCc3[nH]c4ccc(Cl)cc4c3C2)o1", "stereo": "stereo not given", "effect": -19.5}
{"smiles": "CC(C)(C)CC(=O)NCCn1ccc(-c2ccncc2)n1", "effect": 3.055}
{"smiles": "CC(C)NC(=O)O[C@H]1COCCN(c2nc3ccccc3s2)C1", "effect": -9.282}

7 of the entries, repeated:

| SMILES | effect |
|---|---|
| `O=C(NC1CCCc2nc(N3CCOCC3)ncc21)C1CCCC1` (stereo not given) | 6.162 |
| `CC(C)N1CC(C(=O)NCc2cccnc2-n2cccn2)CC1=O` (stereo not given) | 7.892 |
| `CCOc1ccccc1OC1CCN(C(=O)c2csnn2)CC1` | -11.54 |
| `CC(C)NC(=O)N[C@H]1C[C@@H](c2nc(-c3ccncc3)no2)N(C)C1` | -7.189 |
| `CN(C)C1(CNc2nccc(-c3cnn(C)c3)n2)CCSC1` (stereo not given) | -71.62 |
| `Cn1cc(-c2ccnc(NCC3CCCCO3)n2)cn1` (stereo not given) | -169.8 |
| `CC(=O)N1CCCC2(CN(Cc3ccccc3C(F)(F)F)CCO2)C1` (stereo not given) | 14.68 |